We go through three molecules from paper PMC3852179.

By UniProt entry, the sequences of proteins in these tests, tags left out.
UniProt Q15046: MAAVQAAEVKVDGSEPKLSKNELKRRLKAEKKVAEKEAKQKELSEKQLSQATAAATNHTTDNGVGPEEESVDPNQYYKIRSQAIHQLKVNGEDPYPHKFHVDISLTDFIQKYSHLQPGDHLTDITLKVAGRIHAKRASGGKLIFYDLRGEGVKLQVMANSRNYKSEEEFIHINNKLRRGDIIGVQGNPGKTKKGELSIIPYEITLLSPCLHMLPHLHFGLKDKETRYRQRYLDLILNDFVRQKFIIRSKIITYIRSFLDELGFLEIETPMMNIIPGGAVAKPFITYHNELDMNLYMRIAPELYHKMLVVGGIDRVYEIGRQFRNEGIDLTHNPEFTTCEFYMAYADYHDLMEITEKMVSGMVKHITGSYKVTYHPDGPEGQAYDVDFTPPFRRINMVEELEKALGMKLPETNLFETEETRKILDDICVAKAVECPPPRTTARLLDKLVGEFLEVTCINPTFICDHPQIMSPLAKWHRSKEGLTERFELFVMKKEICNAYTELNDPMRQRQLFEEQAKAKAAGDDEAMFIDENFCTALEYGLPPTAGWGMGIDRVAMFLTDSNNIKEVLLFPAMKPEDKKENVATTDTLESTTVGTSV

These are yes or no findings as the source states them, for the method shown. In cells and extracts the contact can be indirect. Some binding calls cover weakened binding; strength is not graded here. Tags and fused reporters may be left off the sequences shown.

What all share (assay): co-IP; MARS-FLAG immuno-isolated from transfected HEK293 lysates (1% Triton-X100/25 mM HEPES, pH 7.9/10% glycerol, protease inhibitors) on anti-FLAG M2 affinity gel, 2 h at 4°C, washed with cold PBS, eluted with 0.5 mg/ml FLAG peptide; co-purified KARS and RARS detected by western blotting
In general terms: Immunoblotting shows a protein as a band on a membrane.

The target in test [1] is T1, wild-type MARS-FLAG (human methionyl-tRNA synthetase with a C-terminal FLAG sequence) (human) (UniProt P56192).
T1 sequence: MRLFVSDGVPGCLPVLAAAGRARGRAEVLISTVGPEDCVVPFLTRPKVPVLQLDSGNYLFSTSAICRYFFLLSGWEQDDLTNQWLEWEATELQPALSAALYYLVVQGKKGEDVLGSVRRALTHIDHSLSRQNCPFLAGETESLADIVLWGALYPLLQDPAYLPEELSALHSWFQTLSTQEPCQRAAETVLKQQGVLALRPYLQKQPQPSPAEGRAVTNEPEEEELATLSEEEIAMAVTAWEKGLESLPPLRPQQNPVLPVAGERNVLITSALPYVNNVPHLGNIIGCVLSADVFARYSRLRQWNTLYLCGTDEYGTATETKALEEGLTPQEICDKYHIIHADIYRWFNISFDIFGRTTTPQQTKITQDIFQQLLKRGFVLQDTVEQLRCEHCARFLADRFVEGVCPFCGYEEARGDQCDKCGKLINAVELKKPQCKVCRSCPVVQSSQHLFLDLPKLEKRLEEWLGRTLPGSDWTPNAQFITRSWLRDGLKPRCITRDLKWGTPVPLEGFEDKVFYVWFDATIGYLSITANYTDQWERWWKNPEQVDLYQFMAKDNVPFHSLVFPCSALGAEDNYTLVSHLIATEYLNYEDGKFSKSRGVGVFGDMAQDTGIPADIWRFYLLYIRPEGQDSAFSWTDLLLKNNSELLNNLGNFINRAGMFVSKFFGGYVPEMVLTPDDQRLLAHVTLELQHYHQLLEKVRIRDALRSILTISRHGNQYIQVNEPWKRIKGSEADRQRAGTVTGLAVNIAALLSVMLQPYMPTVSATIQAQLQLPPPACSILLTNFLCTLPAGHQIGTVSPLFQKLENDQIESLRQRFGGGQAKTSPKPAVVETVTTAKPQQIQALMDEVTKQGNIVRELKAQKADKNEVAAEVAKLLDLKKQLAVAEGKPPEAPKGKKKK

A further test has as its target T2, I523T MARS-FLAG (human) (UniProt P56192).
T2 sequence: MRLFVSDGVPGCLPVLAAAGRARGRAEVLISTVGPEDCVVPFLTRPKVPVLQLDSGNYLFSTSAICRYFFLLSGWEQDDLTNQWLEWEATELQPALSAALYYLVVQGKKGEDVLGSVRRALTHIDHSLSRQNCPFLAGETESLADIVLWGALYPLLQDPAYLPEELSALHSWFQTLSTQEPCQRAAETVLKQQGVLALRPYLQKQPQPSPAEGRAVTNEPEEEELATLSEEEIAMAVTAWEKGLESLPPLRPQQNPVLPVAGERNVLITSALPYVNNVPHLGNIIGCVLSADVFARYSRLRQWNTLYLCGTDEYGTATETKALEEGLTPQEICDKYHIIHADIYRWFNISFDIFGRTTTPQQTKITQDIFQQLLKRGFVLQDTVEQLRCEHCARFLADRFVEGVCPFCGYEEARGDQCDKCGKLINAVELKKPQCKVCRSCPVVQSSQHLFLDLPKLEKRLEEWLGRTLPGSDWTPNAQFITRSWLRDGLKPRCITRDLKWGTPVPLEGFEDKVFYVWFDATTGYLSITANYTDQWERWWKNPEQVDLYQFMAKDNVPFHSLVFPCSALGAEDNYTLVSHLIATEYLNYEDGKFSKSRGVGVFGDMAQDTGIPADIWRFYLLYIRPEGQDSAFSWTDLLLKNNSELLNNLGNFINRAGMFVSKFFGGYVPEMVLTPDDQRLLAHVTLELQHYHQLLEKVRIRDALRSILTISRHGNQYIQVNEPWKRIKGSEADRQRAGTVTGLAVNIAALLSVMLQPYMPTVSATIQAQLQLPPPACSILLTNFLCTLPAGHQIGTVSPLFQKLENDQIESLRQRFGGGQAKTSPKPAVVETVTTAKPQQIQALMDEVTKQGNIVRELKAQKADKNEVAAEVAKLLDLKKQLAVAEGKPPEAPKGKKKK

In the next test the target is T3, F370L MARS-FLAG (human) (UniProt P56192).
T3 sequence: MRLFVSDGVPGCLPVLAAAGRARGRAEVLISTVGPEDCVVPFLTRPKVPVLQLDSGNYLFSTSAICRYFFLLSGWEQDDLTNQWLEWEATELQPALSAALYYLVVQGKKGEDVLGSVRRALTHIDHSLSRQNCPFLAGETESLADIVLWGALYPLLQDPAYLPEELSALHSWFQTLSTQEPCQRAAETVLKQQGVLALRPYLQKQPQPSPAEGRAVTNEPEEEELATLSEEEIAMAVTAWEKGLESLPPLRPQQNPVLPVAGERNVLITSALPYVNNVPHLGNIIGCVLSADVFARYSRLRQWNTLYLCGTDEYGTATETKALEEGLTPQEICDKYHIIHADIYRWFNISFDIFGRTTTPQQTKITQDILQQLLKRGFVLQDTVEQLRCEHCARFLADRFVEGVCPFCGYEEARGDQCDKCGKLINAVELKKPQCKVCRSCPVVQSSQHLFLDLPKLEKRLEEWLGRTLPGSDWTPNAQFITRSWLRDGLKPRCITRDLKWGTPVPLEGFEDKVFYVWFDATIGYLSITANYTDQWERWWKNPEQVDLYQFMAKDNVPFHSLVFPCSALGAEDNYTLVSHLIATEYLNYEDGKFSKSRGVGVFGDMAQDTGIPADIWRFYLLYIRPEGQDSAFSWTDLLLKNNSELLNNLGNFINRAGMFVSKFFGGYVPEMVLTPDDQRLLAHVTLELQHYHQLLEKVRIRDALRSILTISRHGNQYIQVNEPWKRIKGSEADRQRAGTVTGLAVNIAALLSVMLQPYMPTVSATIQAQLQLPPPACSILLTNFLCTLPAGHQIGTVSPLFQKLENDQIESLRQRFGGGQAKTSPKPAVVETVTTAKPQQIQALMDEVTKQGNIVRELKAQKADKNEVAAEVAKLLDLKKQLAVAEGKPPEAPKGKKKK

Test [2] deals with T4, wild-type MARS-FLAG (human methionyl-tRNA synthetase with a C-terminal FLAG sequence) (human), P56192.
T4 chain: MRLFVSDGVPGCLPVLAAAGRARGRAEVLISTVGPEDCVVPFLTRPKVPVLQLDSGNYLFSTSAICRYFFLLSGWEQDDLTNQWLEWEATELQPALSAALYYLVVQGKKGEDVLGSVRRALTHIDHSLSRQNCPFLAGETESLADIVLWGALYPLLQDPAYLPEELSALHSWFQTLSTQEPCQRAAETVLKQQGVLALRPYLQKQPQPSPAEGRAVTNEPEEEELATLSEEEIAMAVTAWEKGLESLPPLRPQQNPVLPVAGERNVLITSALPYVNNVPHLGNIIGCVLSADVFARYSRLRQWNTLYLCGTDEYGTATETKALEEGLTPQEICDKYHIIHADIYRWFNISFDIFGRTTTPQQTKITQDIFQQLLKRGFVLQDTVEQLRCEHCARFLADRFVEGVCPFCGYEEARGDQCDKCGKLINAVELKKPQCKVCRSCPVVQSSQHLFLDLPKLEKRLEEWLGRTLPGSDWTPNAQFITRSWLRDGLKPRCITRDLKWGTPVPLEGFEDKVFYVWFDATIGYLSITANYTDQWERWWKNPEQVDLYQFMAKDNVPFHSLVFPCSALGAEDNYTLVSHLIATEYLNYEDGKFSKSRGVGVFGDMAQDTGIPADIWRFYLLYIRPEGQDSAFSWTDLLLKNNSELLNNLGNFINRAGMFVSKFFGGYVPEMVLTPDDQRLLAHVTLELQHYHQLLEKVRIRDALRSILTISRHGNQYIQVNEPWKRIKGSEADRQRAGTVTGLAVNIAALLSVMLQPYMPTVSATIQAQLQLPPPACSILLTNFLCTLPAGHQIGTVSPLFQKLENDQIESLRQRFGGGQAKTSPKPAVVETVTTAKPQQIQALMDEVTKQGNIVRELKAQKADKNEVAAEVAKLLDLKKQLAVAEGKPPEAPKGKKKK
The following applies: remark: other sources report otherwise.

Turning to “lysyl-tRNA synthetase (KARS) (from UniProt Q15046 1-597) (enzyme)”, the binding entry (in test [1]; with I523T MARS-FLAG (human); in the test with F370L MARS-FLAG (human)) was “binds” each time.

B1: arginyl-tRNA synthetase (RARS), P54136 1-660 (enzyme)
chain: MDVLVSECSARLLQQEEEIKSLTAEIDRLKNCGCLGASPNLEQLQEENLKLKYRLNILRKSLQAERNKPTKNMINIISRLQEVFGHAIKAAYPDLENPPLLVTPSQQAKFGDYQCNSAMGISQMLKTKEQKVNPREIAENITKHLPDNECIEKVEIAGPGFINVHLRKDFVSEQLTSLLVNGVQLPALGENKKVIVDFSSPNIAKEMHVGHLRSTIIGESISRLFEFAGYDVLRLNHVGDWGTQFGMLIAHLQDKFPDYLTVSPPIGDLQVFYKESKKRFDTEEEFKKRAYQCVVLLQGKNPDITKAWKLICDVSRQELNKIYDALDVSLIERGESFYQDRMNDIVKEFEDRGFVQVDDGRKIVFVPGCSIPLTIVKSDGGYTYDTSDLAAIKQRLFEEKADMIIYVVDNGQSVHFQTIFAAAQMIGWYDPKVTRVFHAGFGVVLGEDKKKFKTRSGETVRLMDLLGEGLKRSMDKLKEKERDKVLTAEELNAAQTSVAYGCIKYADLSHNRLNDYIFSFDKMLDDRGNTAAYLLYAFTRIRSIARLANIDEEMLQKAARETKILLDHEKEWKLGRCILRFPEILQKILDDLFLHTLCDYIYELATAFTEFYDSCYCVEKDRQTGKILKVNMWRMLLCEAVAAVMAKGFDILGIKPVQRM
B1: the binding entry in test [2] is listed as “binds”.

B2: arginyl-tRNA synthetase (RARS) (enzyme, UniProt P54136 1-660)
chain: MDVLVSECSARLLQQEEEIKSLTAEIDRLKNCGCLGASPNLEQLQEENLKLKYRLNILRKSLQAERNKPTKNMINIISRLQEVFGHAIKAAYPDLENPPLLVTPSQQAKFGDYQCNSAMGISQMLKTKEQKVNPREIAENITKHLPDNECIEKVEIAGPGFINVHLRKDFVSEQLTSLLVNGVQLPALGENKKVIVDFSSPNIAKEMHVGHLRSTIIGESISRLFEFAGYDVLRLNHVGDWGTQFGMLIAHLQDKFPDYLTVSPPIGDLQVFYKESKKRFDTEEEFKKRAYQCVVLLQGKNPDITKAWKLICDVSRQELNKIYDALDVSLIERGESFYQDRMNDIVKEFEDRGFVQVDDGRKIVFVPGCSIPLTIVKSDGGYTYDTSDLAAIKQRLFEEKADMIIYVVDNGQSVHFQTIFAAAQMIGWYDPKVTRVFHAGFGVVLGEDKKKFKTRSGETVRLMDLLGEGLKRSMDKLKEKERDKVLTAEELNAAQTSVAYGCIKYADLSHNRLNDYIFSFDKMLDDRGNTAAYLLYAFTRIRSIARLANIDEEMLQKAARETKILLDHEKEWKLGRCILRFPEILQKILDDLFLHTLCDYIYELATAFTEFYDSCYCVEKDRQTGKILKVNMWRMLLCEAVAAVMAKGFDILGIKPVQRM
For B2, the binding entry with I523T MARS-FLAG (human) and in the test with F370L MARS-FLAG (human) was “binds” throughout.
